Results: patent US4950669A, “Methods and compositions for promoting growth of animals” (priority 1987, dated 1990)
At least one compound was matched to its structure with a doubt left.

Experiments:
central nervous system = details: Garzia et al. 1974; U.S. Pat. No. 4,115,570; cited from earlier work
[1] = 44-day floor pen study in chickens (Example XIV); type: in vivo; details: feed levels of 2.5 ppm and 5.0 ppm
Experimental: A 44-day floor pen study was conducted in which n-morpholinyl-β-benzoyl-propionamide was administered in chicken feed at concentrations of 1 ppm, 2.5 ppm, 5 ppm, 10 ppm, 20 ppm, 40 ppm and 60 ppm. One group of controls received no medication in its feed, while a second control group received Bacitracin MD in its feed at 30 g/ton. Birds were fed ad libitum. There were 5 replications per treatment, 50 birds per replication. Birds were weighed to determine weight gain and feed-to-gain ration after 35 days and 44 days.

O=C(CCC(=O)N1CCOCC1)c1ccccc1 [NMBP, N-morpholinyl-β-benzoyl-propionamide]
central nervous system activity (central nervous system): central nervous system depressants
growth results in words [1]: positive results were obtained
